Here are results for eight molecules from publication PMC7338081.

By UniProt entry, the sequences of proteins in these tests, tags left out.
UniProt P18239: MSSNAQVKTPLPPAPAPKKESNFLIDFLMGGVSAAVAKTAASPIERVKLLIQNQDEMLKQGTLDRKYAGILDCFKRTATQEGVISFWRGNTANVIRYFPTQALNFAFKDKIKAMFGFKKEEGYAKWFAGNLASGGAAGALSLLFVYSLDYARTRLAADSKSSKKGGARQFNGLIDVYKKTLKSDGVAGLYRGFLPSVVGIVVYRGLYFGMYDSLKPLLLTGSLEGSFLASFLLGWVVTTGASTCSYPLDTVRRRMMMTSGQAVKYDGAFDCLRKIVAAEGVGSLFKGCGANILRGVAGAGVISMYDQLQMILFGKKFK

For assay [1], the target named is T1, Qcr2 (S. cerevisiae (endogenous in YPH499 mitochondria)) (UniProt P07257).
T1 sequence: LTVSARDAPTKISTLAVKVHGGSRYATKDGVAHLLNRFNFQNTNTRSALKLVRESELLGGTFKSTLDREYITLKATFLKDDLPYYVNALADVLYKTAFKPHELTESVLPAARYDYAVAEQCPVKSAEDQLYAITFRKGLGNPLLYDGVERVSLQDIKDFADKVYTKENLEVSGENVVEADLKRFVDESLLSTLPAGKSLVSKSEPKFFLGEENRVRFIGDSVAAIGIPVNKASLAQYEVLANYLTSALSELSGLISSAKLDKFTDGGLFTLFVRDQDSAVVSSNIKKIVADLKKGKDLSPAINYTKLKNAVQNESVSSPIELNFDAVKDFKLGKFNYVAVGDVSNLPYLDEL
The assay is described as follows: cross-linking; XL-MS, qualitative data sets: purified mitochondria from yeast grown on glycerol or glucose medium, 5 mM BS3, 1 h, room temperature, 10 mM HEPES pH 7.5, 100 mM NaCl; trypsin, peptide SEC, LC-MS/MS, pLink 1, at least two CSMs and spectrum score of 4 or more.

In assay [2] the target is T2, Qcr7 (S. cerevisiae (endogenous in YPH499 mitochondria)) (UniProt P00128).
T2 sequence: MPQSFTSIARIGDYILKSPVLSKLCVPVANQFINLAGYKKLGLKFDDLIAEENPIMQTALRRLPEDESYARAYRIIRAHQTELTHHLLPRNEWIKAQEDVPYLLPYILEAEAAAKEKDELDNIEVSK
The assay is described as above.

Assay [3] deals with Por1 (S. cerevisiae (endogenous in YPH499 mitochondria)) (UniProt P04840). The description is as above.
In assay [4] the target is T3, Por1 (S. cerevisiae (endogenous in YPH499 mitochondria)), P04840.
T3 chain: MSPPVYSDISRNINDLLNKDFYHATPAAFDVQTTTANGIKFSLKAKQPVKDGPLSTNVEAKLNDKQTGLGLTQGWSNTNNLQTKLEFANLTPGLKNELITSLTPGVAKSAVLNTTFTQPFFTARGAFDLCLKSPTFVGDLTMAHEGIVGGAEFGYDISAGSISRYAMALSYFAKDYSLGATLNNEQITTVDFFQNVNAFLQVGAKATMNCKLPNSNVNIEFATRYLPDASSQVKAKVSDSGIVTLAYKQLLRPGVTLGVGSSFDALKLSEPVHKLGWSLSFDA
The assay is described as above. To be noted: remark: other sources report otherwise.

Assay [5] concerns the target T4, Cox6 (S. cerevisiae (endogenous in YPH499 mitochondria)) (UniProt P00427).
T4 sequence: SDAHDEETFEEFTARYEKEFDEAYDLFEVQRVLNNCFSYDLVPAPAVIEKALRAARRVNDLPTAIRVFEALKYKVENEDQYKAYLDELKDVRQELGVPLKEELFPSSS
Described as above.

For assay [6], the target named is T5, Cox9 (CIV) (S. cerevisiae (endogenous in YPH499 mitochondria)) (UniProt P07255).
T5 sequence: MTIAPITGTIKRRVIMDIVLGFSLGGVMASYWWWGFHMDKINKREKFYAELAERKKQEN
The assay is described as above.

Assay [7] deals with Pet9, the major ADP/ATP carrier (S. cerevisiae (endogenous in YPH499 mitochondria)) (UniProt P18239). The description is as above.
Assay [8] has as its target T6, Cox12, a subunit of CIV (S. cerevisiae (endogenous in YPH499 mitochondria)) (UniProt Q01519).
T6 sequence: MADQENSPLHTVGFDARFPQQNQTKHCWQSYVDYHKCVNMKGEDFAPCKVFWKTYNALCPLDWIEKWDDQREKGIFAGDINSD
The assay is described as follows: cross-linking + co-IP; wild type and Min8-HA mitochondria treated with BS3, lysed in 0.5% Triton X-100 and 0.1% SDS (denaturing conditions), immunoisolated with Cox12 antisera or HA antibodies, SDS-PAGE and Western blotting.

For assay [9], the target named is T6, Cox12, a subunit of CIV (S. cerevisiae (endogenous in YPH499 mitochondria)). The assay is described as follows: cross-linking; XL-MS, qualitative data sets: purified mitochondria from yeast grown on glycerol or glucose medium, 5 mM BS3, 1 h, room temperature, 10 mM HEPES pH 7.5, 100 mM NaCl; trypsin, peptide SEC, LC-MS/MS, pLink 1, at least two CSMs and spectrum score of 4 or more.

For assay [10], the target named is T7, Cox13 (S. cerevisiae (endogenous in YPH499 mitochondria)) (UniProt P32799).
T7 sequence: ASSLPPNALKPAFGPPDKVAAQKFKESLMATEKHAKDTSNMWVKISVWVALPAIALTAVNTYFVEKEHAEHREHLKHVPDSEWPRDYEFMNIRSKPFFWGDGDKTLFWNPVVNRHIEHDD
Described as above.

Results are given in words; binding and its absence hold for the method and conditions named. Binding seen in cells or lysates may run through a third protein. Some results given as binding are weak or reduced against the parent protein; the word gives no strength. For some of these results: Tags and fused reporters may be left off the sequences shown.

B1: Ndi1, the internal NADH:ubiquinone oxidoreductase (protein, UniProt P32340 27-513)
chain: STGVENSGAGPTSFKTMKVIDPQHSDKPNVLILGSGWGAISFLKHIDTKKYNVSIISPRSYFLFTPLLPSAPVGTVDEKSIIEPIVNFALKKKGNVTYYEAEATSINPDRNTVTIKSLSAVSQLYQPENHLGLHQAEPAEIKYDYLISAVGAEPNTFGIPGVTDYGHFLKEIPNSLEIRRTFAANLEKANLLPKGDPERRRLLSIVVVGGGPTGVEAAGELQDYVHQDLRKFLPALAEEVQIHLVEALPIVLNMFEKKLSSYAQSHLENTSIKVHLRTAVAKVEEKQLLAKTKHEDGKITEETIPYGTLIWATGNKARPVITDLFKKIPEQNSSKRGLAVNDFLQVKGSNNIFAIGDNAFAGLPPTAQVAHQEAEYLAKNFDKMAQIPNFQKNLSSRKDKIDLLFEENNFKPFKYNDLGALAYLGSERAIATIRSGKRTFYTGGGLMTFYLWRILYLSMILSARSRLKVFFDWIKLAFFKRDFFKGL
For B1, the binding result in assay [1] and in assay [2] was “binds” each time.

B2: Alo1, the D-arabinono-1,4-lactone oxidase (protein, UniProt P54783 1-526)
chain: MSTIPFRKNYVFKNWAGIYSAKPERYFQPSSIDEVVELVKSARLAEKSLVTVGSGHSPSNMCVTDEWLVNLDRLDKVQKFVEYPELHYADVTVDAGMRLYQLNEFLGAKGYSIQNLGSISEQSVAGIISTGSHGSSPYHGLISSQYVNLTIVNGKGELKFLDAENDPEVFKAALLSVGKIGIIVSATIRVVPGFNIKSTQEVITFENLLKQWDTLWTSSEFIRVWWYPYTRKCVLWRGNKTTDAQNGPAKSWWGTKLGRFFYETLLWISTKIYAPLTPFVEKFVFNRQYGKLEKSSTGDVNVTDSISGFNMDCLFSQFVDEWGCPMDNGLEVLRSLDHSIAQAAINKEFYVHVPMEVRCSNTTLPSEPLDTSKRTNTSPGPVYGNVCRPFLDNTPSHCRFAPLENVTNSQLTLYINATIYRPFGCNTPIHKWFTLFENTMMVAGGKPHWAKNFLGSTTLAAGPVKKDTDYDDFEMRGMALKVEEWYGEDLKKFRKIRKEQDPDNVFLANKQWAIINGIIDPSELSD
As to B2, the binding result in assay [3] is recorded as “binds”.

B3: Tom40, the channel forming unit of the translocase of outer membrane (TOM) complex, P23644 1-387 (protein)
chain: MSAPTPLAEASQIPTIPALSPLTAKQSKGNFFSSNPISSFVVDTYKQLHSHRQSLELVNPGTVENLNKEVSRDVFLSQYFFTGLRADLNKAFSMNPAFQTSHTFSIGSQALPKYAFSALFANDNLFAQGNIDNDLSVSGRLNYGWDKKNISKVNLQISDGQPTMCQLEQDYQASDFSVNVKTLNPSFSEKGEFTGVAVASFLQSVTPQLALGLETLYSRTDGSAPGDAGVSYLTRYVSKKQDWIFSGQLQANGALIASLWRKVAQNVEAGIETTLQAGMVPITDPLMGTPIGIQPTVEGSTTIGAKYEYRQSVYRGTLDSNGKVACFLERKVLPTLSVLFCGEIDHFKNDTKIGCGLQFETAGNQELLMLQQGLDADGNPLQALPQL
As to B3, the binding entry in assay [4] was “binds”.

B4: Cox26 (protein, UniProt Q2V2P9 9-66)
chain: SSARAAPIKRYTGGRIGESWVITEGRRLIPEIFQWSAVLSVCLGWPGAVYFFSKARKA
With B4, the binding result in assay [5] is “binds”.

B5: Qcr6, a subunit of CIII (protein, UniProt P00127 1-147)
chain: MGMLELVGEYWEQLKITVVPVVAAAEDDDNEQHEEKAAEGEEKEEENGDEDEDEDEDEDDDDDDDEDEEEEEEVTDQLEDLREHFKNTEEGKALVHHYEECAERVKIQQQQPGYADLEHKEDCVEEFFHLQHYLDTATAPRLFDKLK
In the case of B5, the binding entry in assay [6] is on record as “binds”.

B6: Nde1, the external NADH:ubiquinone oxidoreductase (protein, UniProt P40215 42-560)
chain: EDKKVILQKVAPTTGVVAKQSFFKRTGKFTLKALLYSALAGTAYVSYSLYREANPSTQVPQSDTFPNGSKRKTLVILGSGWGSVSLLKNLDTTLYNVVVVSPRNYFLFTPLLPSTPVGTIELKSIVEPVRTIARRSHGEVHYYEAEAYDVDPENKTIKVKSSAKNNDYDLDLKYDYLVVGVGAQPNTFGTPGVYEYSSFLKEISDAQEIRLKIMSSIEKAASLSPKDPERARLLSFVVVGGGPTGVEFAAELRDYVDQDLRKWMPELSKEIKVTLVEALPNILNMFDKYLVDYAQDLFKEEKIDLRLKTMVKKVDATTITAKTGDGDIENIPYGVLVWATGNAPREVSKNLMTKLEEQDSRRGLLIDNKLQLLGAKGSIFAIGDCTFHPGLFPTAQVAHQEGEYLAQYFKKAYKIDQLNWKMTHAKDDSEVARLKNQIVKTQSQIEDFKYNHKGALAYIGSDKAIADLAVGEAKYRLAGSFTFLFWKSAYLAMCLSFRNRVLVAMDWAKVYFLGRDSSI
As to B6, the binding entry in assay [7] was “binds”.

B7: Min8-HA (protein, UniProt A5Z2X5 1-72)
chain: MRPAQLLLNTAKKTSGGYKIPVELTPLFLAVGVALCSGTYFTYKKLRTDETLRLTGNPELSSLDEVLAKDKD
Consider B7, for which the binding result in assay [8] is “binds”.

B8: Rcf2 (protein, UniProt P53721 1-224)
chain: MKILTQDEIEAHRSHTLKGGIEGALAGFAISAIIFKVLPRRYPKFKPSTLTWSIKTALWITPPTVLTAICAEEASNNFDATMYGSGSSSEDALDEHRRWKSLSTKDKFVEGLSNNKYKIITGAWAASLYGSWVIVNKDPIMTKAQKIVQARMYAQFITVGLLLASVGLSMYENKLHPNKQKVNEMRRWENALRVAEEEERLEKEGRRTGYVSNEERINSKIFKS
On to B8, for which the binding result in assay [9] and in [10] was “binds” each time.
